From article PMC4741303
Results are given in words; binding and its absence hold for the method and conditions named. Binding seen in cells or lysates may run through a third protein. Some binding calls cover weakened binding; strength is not graded here.

By UniProt entry, the sequences of proteins in these tests, tags left out.
UniProt Q6IN02: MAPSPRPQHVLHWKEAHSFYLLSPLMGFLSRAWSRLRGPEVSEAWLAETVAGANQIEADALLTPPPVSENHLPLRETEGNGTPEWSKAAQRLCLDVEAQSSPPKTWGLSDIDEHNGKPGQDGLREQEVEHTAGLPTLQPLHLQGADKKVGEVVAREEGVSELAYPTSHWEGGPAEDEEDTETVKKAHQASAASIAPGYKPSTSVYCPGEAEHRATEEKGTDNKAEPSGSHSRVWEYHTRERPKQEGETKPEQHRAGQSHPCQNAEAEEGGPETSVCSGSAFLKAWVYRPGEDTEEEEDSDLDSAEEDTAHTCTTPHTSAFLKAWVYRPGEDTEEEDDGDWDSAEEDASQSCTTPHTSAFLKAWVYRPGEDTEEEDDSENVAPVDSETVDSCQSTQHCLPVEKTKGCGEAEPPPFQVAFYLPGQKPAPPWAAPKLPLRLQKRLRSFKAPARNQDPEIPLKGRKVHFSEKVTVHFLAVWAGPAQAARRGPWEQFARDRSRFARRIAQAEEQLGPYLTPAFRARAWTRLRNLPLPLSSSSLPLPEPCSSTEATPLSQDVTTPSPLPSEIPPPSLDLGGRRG

Target: growth arrest and DNA damage‐inducible 34 (GADD34), endogenous in H9c2 cells (rat (endogenous in H9c2)) (UniProt Q6IN02)
Test: co-IP; pooled sucrose gradient fractions 12/13 of lysates of tunicamycin-treated H9c2 cells; IP with an anti-GADD34 antibody, immunoblot; endogenous proteins

B1: NADPH oxidase‐4 (Nox4), endogenous in H9c2 cells (protein, UniProt Q924V1 1-578)
chain: MALSWRSWLANEGVKHLCLLVWLSLNVLLFWKTFLLYNQGPEYYYIHQMLGLGLCLSRASASVLNLNCSLILLPMCRTVLAYLRGSQKVPSRRTRRLLDKSKTLHITCGITICIFSGVHVAAHLVNALNFSVNYSEHFLALNAARYQNEDPRKLLFTTVPGLTGVCMVVVLFLMVTASTYAIRVSNYDIFWYTHNLFFVFYMLLLLHVSGGLLKYQTNLDTHPPGCISLNRTPSQNMSIADYVSEHFHGSLPGGFSKLEDHYQKTLVKICLEEPKFQAHFPQTWIWISGPLCLYCAERLYRCIRSNKPVTIISVINHPSDVMELRMIKENFKARPGQYIILHCPSVSALENHPFTLTMCPTETKATFGVHFKVVGDWTERFRDLLLPPSSQDSEILPFIQSRNYPKLYIDGPFGSPFEESLNYEVSLCVAGGIGVTPFASILNTLLDDWKPYKLRRLYFIWVCRDIQSFQWFADLLYVLHNKFWQENRPDFVNIQLYLSQTDGIQKIIGEKYHTLNSRLFIGRPRWKLLFDEIAKCNRGKTVGVFCCGPSSISKTLHNLSNRNNSYGTKFEYNKESFS
binding: binds
